Assay results as given in paper PMC4456659.
These are yes or no findings as the source states them, for the method shown. In cells and extracts the contact can be indirect. These calls come from enrichment with a bait or labelling near it, and not all partners need be listed.

Chains of the proteins cited; added tags and fusions are not shown. Residues count along the entry.
UniProt O75460, residues 19-977: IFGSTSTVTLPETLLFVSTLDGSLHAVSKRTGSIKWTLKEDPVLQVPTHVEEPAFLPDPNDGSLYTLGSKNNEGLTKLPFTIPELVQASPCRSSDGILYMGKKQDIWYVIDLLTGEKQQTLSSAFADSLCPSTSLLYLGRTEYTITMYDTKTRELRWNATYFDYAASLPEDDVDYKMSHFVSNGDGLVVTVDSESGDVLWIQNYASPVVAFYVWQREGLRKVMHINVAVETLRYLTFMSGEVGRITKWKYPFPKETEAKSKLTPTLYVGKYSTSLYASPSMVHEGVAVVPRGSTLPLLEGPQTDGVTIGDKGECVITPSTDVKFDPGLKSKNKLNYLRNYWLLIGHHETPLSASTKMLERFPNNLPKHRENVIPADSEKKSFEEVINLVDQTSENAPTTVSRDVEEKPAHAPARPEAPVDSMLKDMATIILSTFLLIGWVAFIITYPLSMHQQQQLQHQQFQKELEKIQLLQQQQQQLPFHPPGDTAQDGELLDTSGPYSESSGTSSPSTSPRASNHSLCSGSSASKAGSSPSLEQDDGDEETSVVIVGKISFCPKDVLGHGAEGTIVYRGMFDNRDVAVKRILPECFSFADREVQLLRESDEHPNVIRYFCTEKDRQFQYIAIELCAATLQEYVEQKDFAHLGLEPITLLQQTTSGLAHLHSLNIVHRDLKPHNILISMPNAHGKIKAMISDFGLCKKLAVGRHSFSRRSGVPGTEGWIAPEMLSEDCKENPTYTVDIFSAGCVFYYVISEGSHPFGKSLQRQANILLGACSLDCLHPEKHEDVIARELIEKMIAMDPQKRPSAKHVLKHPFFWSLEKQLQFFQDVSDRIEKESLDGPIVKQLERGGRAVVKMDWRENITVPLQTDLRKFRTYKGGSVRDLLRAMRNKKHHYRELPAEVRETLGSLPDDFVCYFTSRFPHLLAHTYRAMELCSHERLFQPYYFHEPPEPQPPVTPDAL
UniProt P60468: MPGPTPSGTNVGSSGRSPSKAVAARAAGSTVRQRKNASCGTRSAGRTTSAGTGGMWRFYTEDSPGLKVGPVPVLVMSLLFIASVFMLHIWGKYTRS
UniProt Q9UGP8: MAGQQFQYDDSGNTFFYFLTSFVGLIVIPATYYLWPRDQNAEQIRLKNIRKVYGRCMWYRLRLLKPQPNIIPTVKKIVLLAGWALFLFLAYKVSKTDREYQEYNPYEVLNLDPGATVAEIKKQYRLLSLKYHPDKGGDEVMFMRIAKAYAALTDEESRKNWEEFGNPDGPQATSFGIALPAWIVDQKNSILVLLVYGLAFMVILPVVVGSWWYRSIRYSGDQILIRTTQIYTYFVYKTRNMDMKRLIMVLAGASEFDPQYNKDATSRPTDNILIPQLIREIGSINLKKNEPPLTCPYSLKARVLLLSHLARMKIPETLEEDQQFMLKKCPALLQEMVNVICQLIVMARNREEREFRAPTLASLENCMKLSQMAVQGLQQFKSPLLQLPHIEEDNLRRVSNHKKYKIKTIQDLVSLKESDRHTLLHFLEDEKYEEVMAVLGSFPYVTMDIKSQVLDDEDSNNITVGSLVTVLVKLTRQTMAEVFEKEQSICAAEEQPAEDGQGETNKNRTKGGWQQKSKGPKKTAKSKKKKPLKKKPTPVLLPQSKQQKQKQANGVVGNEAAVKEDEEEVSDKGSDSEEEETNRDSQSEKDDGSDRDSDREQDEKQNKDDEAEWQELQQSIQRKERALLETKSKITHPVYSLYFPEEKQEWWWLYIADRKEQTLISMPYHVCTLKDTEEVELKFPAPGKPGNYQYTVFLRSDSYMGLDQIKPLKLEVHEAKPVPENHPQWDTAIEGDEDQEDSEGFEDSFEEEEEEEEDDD

Biological target: HA-tagged Ire1α (human) (UniProt O75460)
Assay: affinity purification with mass spectrometry; 1% digitonin extract of microsomes from HEK 293 cells stably expressing Ire1α-HA (250 ng/ml doxycycline, 48 hr) bound to anti-HA agarose, washed with 0.2% digitonin, eluted with 0.1 M glycine pH 2.3; bands absent from the control identified by mass spectrometry

**Q.** How did the binding turn out when “Sec61β (endogenous, HEK 293) (from UniProt P60468 1-96)” was run?
**A.** The binding was “binds”.

**Q.** For Sec63 (from UniProt Q9UGP8 1-760), which binding is on record?
**A.** The binding was “binds”.
